According to article doi:10.1101/2020.09.06.285270:
Like-named read-outs stand apart in the source and are kept apart here. Results are given in words; binding and its absence hold for the method and conditions named. In cells and extracts the contact can be indirect. Some binding calls cover weakened binding; strength is not graded here. For part of these data: Sequences can lack the tags named with a protein.

Protein sequences, listed by entry. Tags and fused reporters are not part of them. Lines headed by an entry give the natural chain unless they say otherwise; changes in a name come on top. Chains listed by the source or under a name are the forms on record and can include a tag or linker. Residues count along the entry.
UniProt P54760, residues 16-987: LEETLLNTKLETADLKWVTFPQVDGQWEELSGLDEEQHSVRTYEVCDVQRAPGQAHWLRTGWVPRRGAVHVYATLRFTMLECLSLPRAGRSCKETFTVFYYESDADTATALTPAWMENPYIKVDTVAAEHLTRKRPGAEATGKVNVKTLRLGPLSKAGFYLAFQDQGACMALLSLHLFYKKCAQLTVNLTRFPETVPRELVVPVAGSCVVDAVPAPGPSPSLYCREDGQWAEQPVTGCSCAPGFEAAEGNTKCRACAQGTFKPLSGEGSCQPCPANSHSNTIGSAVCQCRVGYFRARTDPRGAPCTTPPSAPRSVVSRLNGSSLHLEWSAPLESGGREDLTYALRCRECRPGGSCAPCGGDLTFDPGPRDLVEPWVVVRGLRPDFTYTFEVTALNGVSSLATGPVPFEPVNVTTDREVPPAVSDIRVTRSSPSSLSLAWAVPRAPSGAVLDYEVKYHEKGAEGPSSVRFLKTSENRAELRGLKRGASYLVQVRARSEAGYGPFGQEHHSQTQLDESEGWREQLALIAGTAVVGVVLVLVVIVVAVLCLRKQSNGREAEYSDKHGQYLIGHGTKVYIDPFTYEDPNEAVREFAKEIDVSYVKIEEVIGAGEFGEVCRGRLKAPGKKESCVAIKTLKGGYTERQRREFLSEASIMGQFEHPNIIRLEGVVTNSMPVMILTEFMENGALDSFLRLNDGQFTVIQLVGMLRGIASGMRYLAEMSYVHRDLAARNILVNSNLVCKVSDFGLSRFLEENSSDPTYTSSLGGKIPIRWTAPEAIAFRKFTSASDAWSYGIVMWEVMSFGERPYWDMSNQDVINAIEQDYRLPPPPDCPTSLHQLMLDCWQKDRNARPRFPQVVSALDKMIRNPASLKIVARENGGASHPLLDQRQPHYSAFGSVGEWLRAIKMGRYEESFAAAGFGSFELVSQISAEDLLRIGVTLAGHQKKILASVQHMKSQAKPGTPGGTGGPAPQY
UniProt P29323, residues 19-1055: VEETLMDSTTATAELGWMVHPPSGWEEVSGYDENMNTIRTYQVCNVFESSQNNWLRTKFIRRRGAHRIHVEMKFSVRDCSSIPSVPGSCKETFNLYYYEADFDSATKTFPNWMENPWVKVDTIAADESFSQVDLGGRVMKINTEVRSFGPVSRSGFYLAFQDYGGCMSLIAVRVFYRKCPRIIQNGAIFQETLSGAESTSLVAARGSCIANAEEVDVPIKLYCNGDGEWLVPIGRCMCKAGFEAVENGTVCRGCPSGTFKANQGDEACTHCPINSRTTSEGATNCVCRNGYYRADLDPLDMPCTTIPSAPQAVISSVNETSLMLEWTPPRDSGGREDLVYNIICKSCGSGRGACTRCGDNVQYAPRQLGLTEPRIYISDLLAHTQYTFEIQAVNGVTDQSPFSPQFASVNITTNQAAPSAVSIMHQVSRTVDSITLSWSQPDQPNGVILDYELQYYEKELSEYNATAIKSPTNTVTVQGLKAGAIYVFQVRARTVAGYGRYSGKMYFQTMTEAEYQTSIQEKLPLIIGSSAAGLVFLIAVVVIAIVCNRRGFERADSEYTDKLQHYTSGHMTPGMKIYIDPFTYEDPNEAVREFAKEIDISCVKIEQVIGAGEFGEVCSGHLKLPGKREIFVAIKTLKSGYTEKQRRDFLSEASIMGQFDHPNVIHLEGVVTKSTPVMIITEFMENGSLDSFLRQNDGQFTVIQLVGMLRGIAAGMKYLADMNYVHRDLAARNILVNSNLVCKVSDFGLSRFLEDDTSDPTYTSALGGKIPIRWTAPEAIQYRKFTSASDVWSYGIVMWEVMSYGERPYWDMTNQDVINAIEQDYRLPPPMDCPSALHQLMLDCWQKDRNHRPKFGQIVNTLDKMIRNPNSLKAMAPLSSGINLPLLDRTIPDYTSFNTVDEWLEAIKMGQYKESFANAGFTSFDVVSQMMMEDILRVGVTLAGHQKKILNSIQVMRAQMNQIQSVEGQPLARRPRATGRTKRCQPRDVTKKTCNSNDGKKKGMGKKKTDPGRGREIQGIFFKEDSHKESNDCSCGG
UniProt P54764, residues 20-986: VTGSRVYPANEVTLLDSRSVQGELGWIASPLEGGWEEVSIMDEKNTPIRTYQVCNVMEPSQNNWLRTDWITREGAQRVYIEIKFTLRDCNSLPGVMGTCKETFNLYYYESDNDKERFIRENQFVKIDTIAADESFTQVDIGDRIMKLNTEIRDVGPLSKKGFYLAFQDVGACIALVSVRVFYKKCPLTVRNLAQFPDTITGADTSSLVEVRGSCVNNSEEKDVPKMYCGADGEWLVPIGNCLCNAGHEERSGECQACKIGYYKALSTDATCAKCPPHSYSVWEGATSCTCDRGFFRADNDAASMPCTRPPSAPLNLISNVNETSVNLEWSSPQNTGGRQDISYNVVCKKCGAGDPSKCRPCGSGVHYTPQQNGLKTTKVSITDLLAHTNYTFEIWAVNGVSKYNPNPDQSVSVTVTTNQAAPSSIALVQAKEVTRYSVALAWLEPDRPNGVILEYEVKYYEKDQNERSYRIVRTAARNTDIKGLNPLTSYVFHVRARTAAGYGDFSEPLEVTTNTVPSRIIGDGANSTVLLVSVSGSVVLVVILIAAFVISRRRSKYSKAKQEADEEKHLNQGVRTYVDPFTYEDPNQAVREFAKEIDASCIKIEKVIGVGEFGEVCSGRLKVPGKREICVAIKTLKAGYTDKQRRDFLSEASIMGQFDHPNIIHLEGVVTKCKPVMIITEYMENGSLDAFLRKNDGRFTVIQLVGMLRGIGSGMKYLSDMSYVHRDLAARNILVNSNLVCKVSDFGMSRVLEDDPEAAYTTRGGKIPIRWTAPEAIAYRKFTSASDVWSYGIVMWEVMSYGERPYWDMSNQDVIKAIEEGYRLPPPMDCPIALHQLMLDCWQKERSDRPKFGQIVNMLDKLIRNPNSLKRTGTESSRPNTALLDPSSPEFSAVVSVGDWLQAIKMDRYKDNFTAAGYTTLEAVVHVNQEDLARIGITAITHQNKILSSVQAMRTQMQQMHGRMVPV
UniProt P54753, residues 34-998: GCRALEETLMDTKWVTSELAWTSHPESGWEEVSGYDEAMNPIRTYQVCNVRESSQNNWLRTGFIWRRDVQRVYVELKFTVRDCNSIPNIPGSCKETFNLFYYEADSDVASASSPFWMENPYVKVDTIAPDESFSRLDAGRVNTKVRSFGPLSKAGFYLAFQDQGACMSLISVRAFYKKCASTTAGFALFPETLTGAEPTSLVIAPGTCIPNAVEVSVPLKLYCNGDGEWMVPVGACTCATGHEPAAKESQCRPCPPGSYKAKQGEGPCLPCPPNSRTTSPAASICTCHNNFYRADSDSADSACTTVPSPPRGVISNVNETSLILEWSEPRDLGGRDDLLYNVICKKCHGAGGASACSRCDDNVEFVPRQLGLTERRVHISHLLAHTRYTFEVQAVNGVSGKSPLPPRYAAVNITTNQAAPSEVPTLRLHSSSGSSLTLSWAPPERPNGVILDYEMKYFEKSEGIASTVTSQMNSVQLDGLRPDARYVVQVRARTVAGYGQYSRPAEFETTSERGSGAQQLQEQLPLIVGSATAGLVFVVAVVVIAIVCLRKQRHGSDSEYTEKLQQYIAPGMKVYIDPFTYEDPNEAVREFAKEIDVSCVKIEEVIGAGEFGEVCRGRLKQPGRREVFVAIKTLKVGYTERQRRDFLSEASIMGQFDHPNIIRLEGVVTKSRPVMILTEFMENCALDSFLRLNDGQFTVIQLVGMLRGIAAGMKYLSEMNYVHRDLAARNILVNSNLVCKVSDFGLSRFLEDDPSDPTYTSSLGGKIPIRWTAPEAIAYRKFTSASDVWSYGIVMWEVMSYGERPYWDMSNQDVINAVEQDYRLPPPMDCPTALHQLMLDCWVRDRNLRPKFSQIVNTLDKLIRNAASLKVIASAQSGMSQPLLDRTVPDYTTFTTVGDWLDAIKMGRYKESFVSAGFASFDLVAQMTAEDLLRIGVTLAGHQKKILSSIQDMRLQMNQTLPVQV
EPHA4 wild type (murine) (Q03137, residues 20-986): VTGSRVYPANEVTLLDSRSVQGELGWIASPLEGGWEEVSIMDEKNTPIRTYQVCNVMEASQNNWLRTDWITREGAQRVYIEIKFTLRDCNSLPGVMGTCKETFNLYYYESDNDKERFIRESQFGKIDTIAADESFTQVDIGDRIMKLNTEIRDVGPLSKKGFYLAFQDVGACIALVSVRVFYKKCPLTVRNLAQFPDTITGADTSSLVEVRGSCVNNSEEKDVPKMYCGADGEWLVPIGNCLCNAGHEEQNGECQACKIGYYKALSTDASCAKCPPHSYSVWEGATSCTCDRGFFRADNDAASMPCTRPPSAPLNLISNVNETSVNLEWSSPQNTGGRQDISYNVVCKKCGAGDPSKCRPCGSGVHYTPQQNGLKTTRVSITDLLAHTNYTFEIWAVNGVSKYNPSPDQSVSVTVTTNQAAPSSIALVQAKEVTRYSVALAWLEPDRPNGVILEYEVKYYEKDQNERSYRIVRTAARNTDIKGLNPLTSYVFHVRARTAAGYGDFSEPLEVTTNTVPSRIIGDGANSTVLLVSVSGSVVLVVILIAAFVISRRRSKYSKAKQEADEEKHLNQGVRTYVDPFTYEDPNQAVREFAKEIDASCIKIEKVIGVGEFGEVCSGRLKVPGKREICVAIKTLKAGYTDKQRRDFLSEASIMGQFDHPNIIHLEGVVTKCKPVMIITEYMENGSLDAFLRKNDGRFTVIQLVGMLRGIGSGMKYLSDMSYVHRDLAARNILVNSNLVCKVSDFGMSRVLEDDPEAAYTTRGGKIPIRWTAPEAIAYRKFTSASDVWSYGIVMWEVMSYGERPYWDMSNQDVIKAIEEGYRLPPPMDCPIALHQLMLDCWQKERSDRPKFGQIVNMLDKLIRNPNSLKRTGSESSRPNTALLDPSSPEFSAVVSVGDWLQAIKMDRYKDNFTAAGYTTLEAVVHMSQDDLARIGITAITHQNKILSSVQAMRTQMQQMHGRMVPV
EPHA4 kinase dead (KD; K653A) (murine) (Q03137, form named): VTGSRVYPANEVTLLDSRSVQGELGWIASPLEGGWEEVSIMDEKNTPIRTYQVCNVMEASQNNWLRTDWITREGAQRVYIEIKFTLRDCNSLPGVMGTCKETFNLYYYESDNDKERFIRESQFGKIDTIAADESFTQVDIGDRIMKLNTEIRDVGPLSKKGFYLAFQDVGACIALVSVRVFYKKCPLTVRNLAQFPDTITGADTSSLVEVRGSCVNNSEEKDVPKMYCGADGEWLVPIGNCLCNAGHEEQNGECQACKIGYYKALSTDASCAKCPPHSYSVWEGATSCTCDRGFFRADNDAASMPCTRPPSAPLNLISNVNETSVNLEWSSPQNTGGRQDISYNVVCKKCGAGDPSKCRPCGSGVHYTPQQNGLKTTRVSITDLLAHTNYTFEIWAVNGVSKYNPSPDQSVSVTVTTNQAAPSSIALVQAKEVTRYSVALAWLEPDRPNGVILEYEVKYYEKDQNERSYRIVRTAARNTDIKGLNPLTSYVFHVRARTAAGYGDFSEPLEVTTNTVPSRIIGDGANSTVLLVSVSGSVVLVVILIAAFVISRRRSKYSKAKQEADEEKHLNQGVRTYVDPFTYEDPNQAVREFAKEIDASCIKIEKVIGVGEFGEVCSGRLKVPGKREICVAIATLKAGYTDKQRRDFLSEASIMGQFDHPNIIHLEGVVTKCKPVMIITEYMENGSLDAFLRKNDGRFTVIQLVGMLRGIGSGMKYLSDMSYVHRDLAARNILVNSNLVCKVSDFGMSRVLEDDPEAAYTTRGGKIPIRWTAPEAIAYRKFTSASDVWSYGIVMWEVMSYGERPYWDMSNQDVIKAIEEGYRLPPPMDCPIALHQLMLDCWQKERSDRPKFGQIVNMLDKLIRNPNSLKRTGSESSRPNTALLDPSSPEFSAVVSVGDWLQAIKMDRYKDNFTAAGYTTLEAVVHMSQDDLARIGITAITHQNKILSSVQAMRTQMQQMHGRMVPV

Key:
[1] = target: GFP-PAR-3 (wild type) (rat) (UniProt Q9Z340); experiment: co-IP
GST-CSK SH2 domain = target: T1, GST-CSK SH2 domain (UniProt P41240); experiment: pull-down
T1 sequence: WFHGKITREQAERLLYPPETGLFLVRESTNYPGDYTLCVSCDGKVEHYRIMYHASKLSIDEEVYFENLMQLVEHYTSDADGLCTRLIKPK

GFP-PAR-3 Y1127F (rat) [2] = target: T2, GFP-PAR-3 Y1127F (rat) (UniProt Q9Z340); experiment: co-IP
T2 sequence: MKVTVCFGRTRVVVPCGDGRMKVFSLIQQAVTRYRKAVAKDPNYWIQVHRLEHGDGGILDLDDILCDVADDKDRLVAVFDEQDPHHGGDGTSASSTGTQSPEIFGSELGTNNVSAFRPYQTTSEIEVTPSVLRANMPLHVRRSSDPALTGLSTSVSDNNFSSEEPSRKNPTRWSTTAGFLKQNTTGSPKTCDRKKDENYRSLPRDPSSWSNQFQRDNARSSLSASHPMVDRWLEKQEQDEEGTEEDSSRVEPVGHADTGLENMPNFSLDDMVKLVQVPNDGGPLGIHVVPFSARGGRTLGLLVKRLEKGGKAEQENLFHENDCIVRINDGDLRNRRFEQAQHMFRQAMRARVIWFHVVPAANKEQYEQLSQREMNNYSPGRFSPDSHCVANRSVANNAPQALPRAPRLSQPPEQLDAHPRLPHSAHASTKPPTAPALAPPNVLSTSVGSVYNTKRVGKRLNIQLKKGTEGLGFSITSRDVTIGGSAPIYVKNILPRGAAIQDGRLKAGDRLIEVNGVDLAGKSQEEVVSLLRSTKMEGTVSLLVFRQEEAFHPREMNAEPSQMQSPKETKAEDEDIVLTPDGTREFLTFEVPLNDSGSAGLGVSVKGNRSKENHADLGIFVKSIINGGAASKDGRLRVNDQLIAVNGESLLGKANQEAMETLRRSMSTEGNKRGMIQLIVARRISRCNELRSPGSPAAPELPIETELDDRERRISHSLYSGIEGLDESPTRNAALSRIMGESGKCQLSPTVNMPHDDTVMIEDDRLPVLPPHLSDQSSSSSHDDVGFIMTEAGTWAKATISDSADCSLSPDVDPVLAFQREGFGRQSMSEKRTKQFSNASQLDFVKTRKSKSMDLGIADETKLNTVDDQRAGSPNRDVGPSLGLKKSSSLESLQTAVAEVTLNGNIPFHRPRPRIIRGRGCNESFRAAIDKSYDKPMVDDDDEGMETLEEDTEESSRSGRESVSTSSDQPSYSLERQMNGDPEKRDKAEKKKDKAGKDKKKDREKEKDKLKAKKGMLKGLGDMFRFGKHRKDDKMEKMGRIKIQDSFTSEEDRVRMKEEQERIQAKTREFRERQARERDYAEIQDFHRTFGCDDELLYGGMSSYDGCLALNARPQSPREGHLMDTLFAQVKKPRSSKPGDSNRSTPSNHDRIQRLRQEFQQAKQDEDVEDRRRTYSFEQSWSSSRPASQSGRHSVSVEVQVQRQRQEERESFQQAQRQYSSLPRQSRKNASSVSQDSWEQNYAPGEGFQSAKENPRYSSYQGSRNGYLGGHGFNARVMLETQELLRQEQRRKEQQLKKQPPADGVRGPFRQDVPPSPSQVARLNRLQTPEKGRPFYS

GFP-PAR-3 Y1127F (rat) [3] = target: T2, GFP-PAR-3 Y1127F (rat); experiment: co-IP; remark: listed apart in the source

| Substance | binding [1] | also measured |
| --- | --- | --- |
| EPHB4-BirA*-FLAG (from UniProt P54760 16-987) (receptor) | binds |  |
| GFP-PAR-3 Y1127F (from UniProt Q9Z340 1-1337) |  | binding (GST-CSK SH2 domain): no binding |
| EPHB2-BirA*-FLAG (from UniProt P29323) (receptor) | binds |  |
| C-terminal SRC kinase (CSK), endogenous (from UniProt P41240 1-450) (enzyme) |  | binding (GFP-PAR-3 Y1127F (rat) [2]): no binding; binding (GFP-PAR-3 Y1127F (rat) [3]): no binding |
| EPHA4-BirA*-FLAG (from UniProt P54764 20-986) (receptor) | binds |  |
| EPHB3-BirA*-FLAG (from UniProt P54753 34-998) (receptor) | binds |  |
| EPHA4 kinase dead (KD; K653A) (murine) (from UniProt Q03137 20-986) (receptor) | binds |  |
| EPHA4 wild type (murine) (from UniProt Q03137 20-986) (receptor) | binds |  |
